Experimental data: PubChem BioAssay AID1259254 (NCATS, 2017)

Assay: 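Gene knock-downs that lead to re-replication, shown by excess G2 DNA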 (primary screen)
Cells: human HCT116 colorectal cancer cells
Reagent: single siRNA against human genes
Duration: 3 days
Measurement: 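Imaged Hoechst DNA stain sorts each cell into a cycle phase by DNA amount; per plate, G2 fraction set to 0% for non-targeting and 100% for GMNN siRNA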
Direction: G2 robust z-score and G2 cells, % of GMNN control: higher = more G2 cells, more excess DNA replication
Hit rule: 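An siRNA counts as active if its G2 robust z-score lies at least 5 MADs above the screen median; here such calls match roughly 38% of GMNN control or more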
Shown is a random part of about 59,000 reagents. Over the whole deposit, about 1,550 (2.6%) are marked active. 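G2 share is only a proxy for re-replication; each gene was hit by three separate siRNAs, and active genes were retested.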 Unmarked entries are inactive. Reagents against one gene are numbered here. Not all columns of the deposit are shown. Not stated in the record: the amount of reagent.

DIS3L2 (DIS3 like 3'-5' exoribonuclease 2) #1 scored G2 robust z-score 6.64 (active); G2 cells, % of GMNN control 49.7.
For DIS3L2 (DIS3 like 3'-5' exoribonuclease 2) #2, the entry reads G2 robust z-score -0.402; G2 cells, % of GMNN control 0.136.
Depletion of DIS3L2 (DIS3 like 3'-5' exoribonuclease 2) #3 came out at: G2 robust z-score -0.252; G2 cells, % of GMNN control 1.19.
FOXRED1 (FAD dependent oxidoreductase domain containing 1) #1 gave G2 robust z-score -0.707; G2 cells, % of GMNN control -2.01.
Silencing of FOXRED1 (FAD dependent oxidoreductase domain containing 1) #2 came out at: G2 robust z-score 6.91 (active); G2 cells, % of GMNN control 51.6.
With knock-down of FOXRED1 (FAD dependent oxidoreductase domain containing 1) #3, the screen gave G2 robust z-score 1.26; G2 cells, % of GMNN control 11.9.
After knock-down of MTHFD1LP1 (MTHFD1L pseudogene 1) #1, the screen gave G2 robust z-score -0.17; G2 cells, % of GMNN control 1.77.
MTHFD1LP1 (MTHFD1L pseudogene 1) #2 scored G2 robust z-score -0.14; G2 cells, % of GMNN control 1.98.
Silencing of MTHFD1LP1 (MTHFD1L pseudogene 1) #3 came out at: G2 robust z-score 0.233; G2 cells, % of GMNN control 4.61.
With knock-down of PMS2P1 #1, the record shows G2 robust z-score 1.14; G2 cells, % of GMNN control 11.
PMS2P1 #2 scored G2 robust z-score -0.728; G2 cells, % of GMNN control -2.15.
PMS2P1 #3 scored G2 robust z-score -0.226; G2 cells, % of GMNN control 1.38.

3 neighbouring entries already listed, quoted:
FOXRED1 (FAD dependent oxidoreductase domain containing 1) #3 — G2 robust z-score: 1.26; G2 cells, % of GMNN control: 11.9
MTHFD1LP1 (MTHFD1L pseudogene 1) #1 — G2 robust z-score: -0.17; G2 cells, % of GMNN control: 1.77
MTHFD1LP1 (MTHFD1L pseudogene 1) #2 — G2 robust z-score: -0.14; G2 cells, % of GMNN control: 1.98

The results go on.
Knock-down of OR2W3 (olfactory receptor family 2 subfamily W member 3) #1 came out at: G2 robust z-score 1.58; G2 cells, % of GMNN control 14.1.
Depletion of OR2W3 (olfactory receptor family 2 subfamily W member 3) #2 gave: G2 robust z-score -0.252; G2 cells, % of GMNN control 1.19.
OR2W3 (olfactory receptor family 2 subfamily W member 3) #3 gave G2 robust z-score -0.111; G2 cells, % of GMNN control 2.18.
Depletion of RNF112 (ring finger protein 112) #1 resulted in: G2 robust z-score -1.37; G2 cells, % of GMNN control -6.65.
Against RNF112 (ring finger protein 112) #2 the deposit lists G2 robust z-score 5.54 (active); G2 cells, % of GMNN control 42.
Against RNF112 (ring finger protein 112) #3 the deposit lists G2 robust z-score 4.59; G2 cells, % of GMNN control 35.3.
After knock-down of OTUD1 (OTU deubiquitinase 1) #1, the screen gave G2 robust z-score 0.888; G2 cells, % of GMNN control 9.21.
OTUD1 (OTU deubiquitinase 1) #2 scored G2 robust z-score 1.89; G2 cells, % of GMNN control 16.3.
Knock-down of OTUD1 (OTU deubiquitinase 1) #3 gave: G2 robust z-score 0.543; G2 cells, % of GMNN control 6.79.
Depletion of CLEC14A (C-type lectin domain containing 14A) #1 came out at: G2 robust z-score -0.993; G2 cells, % of GMNN control -4.02.
Depletion of CLEC14A (C-type lectin domain containing 14A) #2 gave: G2 robust z-score -0.995; G2 cells, % of GMNN control -4.03.
After knock-down of CLEC14A (C-type lectin domain containing 14A) #3, the screen gave G2 robust z-score 0.148; G2 cells, % of GMNN control 4.01.
